Where a name gives a salt, the structure may show the parent alone. ± gives the standard deviation of the averaged measurements. This is one part of the list. Single values are uncertain, as repeats are few or missing.
System: RAW 264.7
Assay: HMGB1-induced TNF-alpha production relative to HMGB1-stimulated control; higher = more TNF-alpha secretion (less inhibition)
Settings: stimulus: HMGB1 5 ug/ml, 18 h
[1] = compound concentration: 1 ug/ml

Row | Structure (SMILES) | HMGB1-induced TNF-alpha production (compound concentration: 3 uM) [%] | HMGB1-induced TNF-alpha production [1] [%]
1 | CCCCc1nc(Cl)c(CO)n1Cc1ccc(-c2ccccc2-c2nnn[nH]2)cc1 | 79.6 | –
2 | CCCCc1nc(Cl)c(CO)n1Cc1ccc(-c2ccccc2-c2nnn[nH]2)cc1 [LOSARTAN Potassium] | 120 | –
3 | CCCCc1nc(Cl)c(CO)n1Cc1ccc(-c2ccccc2-c2nnn[nH]2)cc1 [Losartan potassium] | 89.5 | –
4 | CCCCc1nc(Cl)c(CO)n1Cc1ccc(-c2ccccc2-c2nnn[nH]2)cc1 [Losartan] | 111 | –
5 | O=C1CCC(N2C(=O)c3ccccc3C2=O)C(=O)N1 (centres undefined) | 81.1 | –
6 | O=C1CCC(N2C(=O)c3ccccc3C2=O)C(=O)N1 (centres undefined) [Thalidomide] | 98 ± 14 | –
7 | CC1(C)CC[C@]2(C(=O)O)CC[C@]3(C)C(=CC[C@@H]4[C@@]5(C)CC[C@H](O)C(C)(C)[C@@H]5[C@H](O)C[C@]43C)[C@@H]2C1 [Sumaresinolic acid] | – | 77.2
8 | O=C1NCCN1CCN1CCC(c2cn(-c3ccc(F)cc3)c3ccc(Cl)cc23)CC1 [Sertindole] | 96.8 | –
9 | O=C1OC(CN2CCOCC2)CN1/N=C/c1ccc([N+](=O)[O-])o1 (centres undefined) | 73 | –
10 | O=C1OC(CN2CCOCC2)CN1/N=C/c1ccc([N+](=O)[O-])o1 (centres undefined) [Furaltadone hydrochloride] | 96.1 | –
11 | CC[n+]1c(-c2ccccc2)c2cc(N)ccc2c2ccc(N)cc21 | 69.2 | –
12 | Cc1ccsc1C(=CCCN1CCC[C@@H](C(=O)O)C1)c1sccc1C | 121 | –
13 | CNCCCN1c2ccccc2CCc2ccccc21 | 69.8 | –
14 | CNCCCN1c2ccccc2CCc2ccccc21 [Desipramine hydrochloride] | 69.1 ± 1.1 | –
15 | O=C(O)CCNC(=O)c1ccc(/N=N/c2ccc(O)c(C(=O)O)c2)cc1 | 89.4 | –
16 | O=C(O)CCNC(=O)c1ccc(/N=N/c2ccc(O)c(C(=O)O)c2)cc1 [Balsalazide Sodium] | 105 | –
17 | C[n+]1ccccc1/C=N/O [Pralidoxime chloride] | 105 | –
18 | C[n+]1ccccc1/C=N/O | 84.8 | –
19 | CCOc1cc(N)c(Cl)cc1C(=O)NCC1CN(Cc2ccc(F)cc2)CCO1 (centres undefined) | 94.9 | –
20 | CCC(C)n1ncn(-c2ccc(N3CCN(c4ccc(OCC5COC(Cn6cncn6)(c6ccc(Cl)cc6Cl)O5)cc4)CC3)cc2)c1=O (centres undefined) [Itraconazole] | 115 ± 43 | –
21 | CCC(C)n1ncn(-c2ccc(N3CCN(c4ccc(OCC5COC(Cn6cncn6)(c6ccc(Cl)cc6Cl)O5)cc4)CC3)cc2)c1=O (centres undefined) | 111 ± 46 | –
22 | Cc1cccc(Nc2ccccc2C(=O)O)c1C | 102 | –
23 | Cc1cccc(Nc2ccccc2C(=O)O)c1C [Mefenamic acid] | 86.1 ± 17 | –
24 | CC(N)C(=O)OC(C)(C)Cc1ccc(Cl)cc1 (centres undefined) [Alaproclate hydrochloride] | 91.4 | –
25 | CC(N)C(=O)OC(C)(C)Cc1ccc(Cl)cc1 (centres undefined) | 86.4 | –
26 | C[C@H]1[C@H](OC(=O)CCC(=O)O)O[C@@H]2O[C@@]3(C)CC[C@H]4[C@H](C)CC[C@@H]1[C@@]24OO3 | 121 | –
27 | C[C@H]1[C@H](OC(=O)CCC(=O)O)O[C@@H]2O[C@@]3(C)CC[C@H]4[C@H](C)CC[C@@H]1[C@@]24OO3 [Artesunate] | 110 | –

Row | Structure (SMILES) | HMGB1-induced TNF-alpha production (compound concentration: 3 uM) [%] | HMGB1-induced TNF-alpha production [1] [%]
28 | COC(=O)C1=C(C)NC(C)=C(C(=O)OCCN(C)Cc2ccccc2)C1c1cccc([N+](=O)[O-])c1 (centres undefined) [Nicardipine hydrochloride] | 87.1 ± 36 | –
29 | COC(=O)C1=C(C)NC(C)=C(C(=O)OCCN(C)Cc2ccccc2)C1c1cccc([N+](=O)[O-])c1 (centres undefined) [Nicardipine] | 83.7 | –
30 | COC(=O)C1=C(C)NC(C)=C(C(=O)OCCN(C)Cc2ccccc2)C1c1cccc([N+](=O)[O-])c1 (centres undefined) | 87.6 | –
31 | CC(=O)N[C@H](Cc1ccc2ccccc2c1)C(=O)O [(R)-N-Acetyl-2-naphthylalanine] | – | 77.3
32 | COc1cccc(-c2oc3cc(OC)ccc3c(=O)c2O)c1 [3',7-Dimethoxy-3-hydroxyflavone] | – | 85
33 | CN1CCN(c2c(F)cc3c(=O)c(C(=O)O)cn4c3c2SCC4)CC1 | 101 | –
34 | CN1CCN(c2c(F)cc3c(=O)c(C(=O)O)cn4c3c2SCC4)CC1 [Rufloxacin] | 85.4 ± 25 | –
35 | COC(=O)C1=C(C)NC(C)=C(C(=O)OCC(C)C)C1c1ccccc1[N+](=O)[O-] (centres undefined) [Nisoldipine] | 90.3 ± 8.7 | –
36 | COC(=O)C1=C(C)NC(C)=C(C(=O)OCC(C)C)C1c1ccccc1[N+](=O)[O-] (centres undefined) | 73.8 ± 26 | –
37 | O=c1cc(-c2ccc(O)cc2)oc2cc(O)ccc12 [4',7-Dihydroxyflavone] | – | 79.7
38 | O=C1CCc2ccc(OCCCCN3CCN(c4cccc(Cl)c4Cl)CC3)cc2N1 | 86.2 ± 21 | –
39 | O=C1CCc2ccc(OCCCCN3CCN(c4cccc(Cl)c4Cl)CC3)cc2N1 [Aripiprazole] | 103 ± 6.3 | –
40 | CN(C)CCOC(c1ccc(Cl)cc1)c1ccccn1 (centres undefined) | 100 | –
41 | CN(C)CCOC(c1ccc(Cl)cc1)c1ccccn1 (centres undefined) [Carbinoxamine maleate salt] | 111 | –
42 | NC(=O)NC1NC(=O)NC1=O (centres undefined) [Allantoin] | 95.9 | –
43 | NC(=O)NC1NC(=O)NC1=O (centres undefined) | 94.1 | –
44 | CCCCCCCCCCCC1=C(O)C(=O)C=C(O)C1=O [Embelin] | – | 77.2
45 | COc1c2ccoc2cc2oc(=O)ccc12 [Bergapten; 5-Methoxypsoralen, 99%] | – | 65.8
46 | COc1c2ccoc2cc2oc(=O)ccc12 | 72.1 | –
47 | COc1ccc(-c2cc(=O)c3c(OC)cccc3o2)cc1 [4',5-Dimethoxyflavone] | – | 95.3
48 | Cc1cc2c(C(C)C)c(O)c(O)c(/C=N/Nc3nc4ccccc4[nH]c3=O)c2c(O)c1-c1c(C)cc2c(C(C)C)c(O)c(O)c(/C=N/Nc3nc4ccccc4[nH]c3=O)c2c1O | – | 61.4
49 | CC(C)NCC(O)c1ccc(O)c(O)c1 (single isomer, unassigned; (-)) [(-)-Isoproterenol hydrochloride] | 82.5 ± 28 | –
50 | O=C1C(O)=C([C@H]2CC[C@H](c3ccc(Cl)cc3)CC2)C(=O)c2ccccc21 | 85.6 ± 17 | –
51 | O=C1C(O)=C([C@H]2CC[C@H](c3ccc(Cl)cc3)CC2)C(=O)c2ccccc21 [Atovaquone] | 98 ± 40 | –
52 | NCCNS(=O)(=O)c1cccc2c(Cl)cccc12 [A3 hydrochloride] | 86 | –
53 | Cc1ccccc1C(OCCN(C)C)c1ccccc1 (centres undefined) | 85.1 | –
54 | Cc1ccccc1C(OCCN(C)C)c1ccccc1 (centres undefined) [Orphenadrine hydrochloride] | 94.7 ± 20 | –

Record cards (already shown). Values in the order: HMGB1-induced TNF-alpha production (compound concentration: 3 uM) [%]	HMGB1-induced TNF-alpha production [1] [%]
O=C1C(O)=C([C@H]2CC[C@H](c3ccc(Cl)cc3)CC2)C(=O)c2ccccc21 [Atovaquone] in the list: 98 ± 40	–
COc1c2ccoc2cc2oc(=O)ccc12 in the list: 72.1	–
COc1cccc(-c2oc3cc(OC)ccc3c(=O)c2O)c1 [3',7-Dimethoxy-3-hydroxyflavone] in the list: –	85
